Laboratory results taken from patent EP4714974A1.
Results are given in words; binding and its absence hold for the method and conditions named. Binding can be weak; no strength is given.

Molecular target: cynomolgus monkey GPRC5D (cynomolgus monkey)
Assay: flow cytometry on cynomolgus monkey GPRC5D-CHOK1 cells

B1: 18CH-16 (chimeric mouse hybridoma-derived anti-GPRC5D antibody) (antibody, V domains shown)
VH: EVQLQQSGPELVKPGASVKMSCKASGYTFTSYIIHWVKQKPGQGLEWIGYINPYNDGTKYNEKFKGKATLTSDRSSSTAYMEVSSLTSEDSAVYYCARGGIRAFMNYWGQGTSVTVSS
VL: DIVMTQSHKFMSTSVGDRVSITCKASQDVGTAVAWYQQKPGQSPKLLIYWASTRHTGVPDRFTGSGSGTDFTLSISNVQSEDLADYFCQHYISWTFGGGTNLEIK
binding: binds
